Positions count from the first letter of the chain named. No constants are given. Whether binding was seen depends on the method and setting. For some assays here: Binding seen in cells or lysates may run through a third protein. Some binding calls cover weakened binding; strength is not graded here. For some assays here: Sequences can lack the tags named with a protein. One block for each binder: values may come before it.
Experiments:
[1] = biological target: T1, endogenous FRS2 from mouse tissue (brain, liver, kidney) (mouse (endogenous in brain, liver and kidney)) (UniProt Q8C180); test: co-IP; FRS2 immunoprecipitated from lysates of 25 mg mouse tissue (brain, liver, kidney), antibody-coupled Protein A Dynabeads 16 h at 4°C; blot for flot-1; anti-flag antibody as IgG control
T1 sequence: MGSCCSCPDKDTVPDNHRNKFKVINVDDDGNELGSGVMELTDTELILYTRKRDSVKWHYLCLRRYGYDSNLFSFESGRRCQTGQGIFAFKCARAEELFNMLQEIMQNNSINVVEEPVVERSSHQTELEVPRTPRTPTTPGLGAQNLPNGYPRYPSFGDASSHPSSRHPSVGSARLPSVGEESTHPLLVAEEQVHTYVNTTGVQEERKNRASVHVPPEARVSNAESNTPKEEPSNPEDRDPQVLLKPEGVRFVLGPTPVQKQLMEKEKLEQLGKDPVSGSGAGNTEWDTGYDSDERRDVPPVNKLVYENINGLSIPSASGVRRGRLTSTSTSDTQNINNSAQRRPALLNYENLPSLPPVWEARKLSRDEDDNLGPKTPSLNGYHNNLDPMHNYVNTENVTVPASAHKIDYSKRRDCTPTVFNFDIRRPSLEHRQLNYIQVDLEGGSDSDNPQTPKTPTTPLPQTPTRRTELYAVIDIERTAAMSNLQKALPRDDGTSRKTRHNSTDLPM

[2] = biological target: T2, Full-length (FL) flotillin-1/reggie-2, two-hybrid bait in pGBKT7 (rat) (UniProt Q9Z1E1); test: two-hybrid; pairwise cotransformation of bait and prey in yeast AH109 (Matchmaker GAL4 Two-Hybrid System 3); growth of blue colonies on SD/-Ade/-His/-Leu/-Trp/X-α-gal plates, photographed after 3 days
T2 sequence: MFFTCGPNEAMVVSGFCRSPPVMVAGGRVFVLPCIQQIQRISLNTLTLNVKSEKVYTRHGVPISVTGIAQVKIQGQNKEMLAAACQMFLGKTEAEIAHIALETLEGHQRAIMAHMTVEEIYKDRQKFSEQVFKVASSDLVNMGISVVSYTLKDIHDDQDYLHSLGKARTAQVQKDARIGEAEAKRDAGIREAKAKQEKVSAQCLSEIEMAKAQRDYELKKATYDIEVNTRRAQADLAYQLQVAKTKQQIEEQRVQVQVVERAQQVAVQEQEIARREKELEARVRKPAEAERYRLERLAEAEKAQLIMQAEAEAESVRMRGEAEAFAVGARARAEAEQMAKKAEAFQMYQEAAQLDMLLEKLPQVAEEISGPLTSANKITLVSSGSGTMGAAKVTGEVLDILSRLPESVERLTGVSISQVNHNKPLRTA

[3] = biological target: T3, flotillin-2/reggie-1, two-hybrid fusion (UniProt Q9Z2S9); test: as above
T3 sequence: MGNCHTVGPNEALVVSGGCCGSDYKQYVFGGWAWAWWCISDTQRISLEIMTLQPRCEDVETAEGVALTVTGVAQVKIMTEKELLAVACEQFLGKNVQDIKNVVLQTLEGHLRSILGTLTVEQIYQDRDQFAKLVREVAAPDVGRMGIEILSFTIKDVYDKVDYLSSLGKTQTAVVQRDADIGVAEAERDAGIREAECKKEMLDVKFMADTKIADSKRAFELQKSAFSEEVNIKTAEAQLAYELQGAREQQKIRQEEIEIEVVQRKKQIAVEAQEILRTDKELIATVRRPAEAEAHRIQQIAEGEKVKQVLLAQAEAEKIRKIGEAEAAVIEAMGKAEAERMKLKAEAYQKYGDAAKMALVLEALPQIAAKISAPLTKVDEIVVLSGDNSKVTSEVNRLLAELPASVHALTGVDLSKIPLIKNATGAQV

[4] = biological target: T4, FL FRS2 GST fusion (UniProt Q8WU20); test: pull-down; GST-FRS2 fusions immobilised on glutathione-sepharose beads, incubated with HeLa cell lysate (50 mM Tris pH 7.4, 0.15 M NaCl, 2 mM EDTA, 1% NP-40) over night at 4°C; blot for endogenous flot-1; only the target purified
T4 sequence: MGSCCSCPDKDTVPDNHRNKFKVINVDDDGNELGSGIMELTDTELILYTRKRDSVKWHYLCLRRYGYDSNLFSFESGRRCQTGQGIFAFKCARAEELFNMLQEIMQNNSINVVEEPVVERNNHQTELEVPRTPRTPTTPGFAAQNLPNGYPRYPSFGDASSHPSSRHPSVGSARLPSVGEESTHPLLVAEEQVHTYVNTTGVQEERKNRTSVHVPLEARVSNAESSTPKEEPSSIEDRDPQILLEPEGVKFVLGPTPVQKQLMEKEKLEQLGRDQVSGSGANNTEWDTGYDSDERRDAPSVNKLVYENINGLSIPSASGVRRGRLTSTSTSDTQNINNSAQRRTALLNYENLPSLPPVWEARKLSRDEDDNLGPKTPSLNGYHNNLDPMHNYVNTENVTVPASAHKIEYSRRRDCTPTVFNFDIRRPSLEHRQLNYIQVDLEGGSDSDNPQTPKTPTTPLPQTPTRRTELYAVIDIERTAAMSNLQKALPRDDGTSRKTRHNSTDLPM

[5] = biological target: T4, FL FRS2 GST fusion; test: pull-down; competition: purified FRS2-GST on beads, lysates of HeLa cells transfected with increasing amounts of FGFR-myc (0.5-2 µg DNA; empty pcDNA3 as control); blot for endogenous flot-1; only the target purified

binding [1]: binds
B1: endogenous flotillin-1 from mouse tissue (brain, liver, kidney) (protein, UniProt O08917 1-428)
chain: T2 sequence with V327I

binding [2]: binds
binding [3]: no binding
B2: FRS2-His (protein)
chain: T4 sequence

binding [4]: binds
binding [5]: binds
B3: endogenous flotillin-1 from HeLa cell lysates (protein, UniProt O75955 1-427)
chain: MFFTCGPNEAMVVSGFCRSPPVMVAGGRVFVLPCIQQIQRISLNTLTLNVKSEKVYTRHGVPISVTGIAQVKIQGQNKEMLAAACQMFLGKTEAEIAHIALETLEGHQRAIMAHMTVEEIYKDRQKFSEQVFKVASSDLVNMGISVVSYTLKDIHDDQDYLHSLGKARTAQVQKDARIGEAEAKRDAGIREAKAKQEKVSAQYLSEIEMAKAQRDYELKKAAYDIEVNTRRAQADLAYQLQVAKTKQQIEEQRVQVQVVERAQQVAVQEQEIARREKELEARVRKPAEAERYKLERLAEAEKSQLIMQAEAEAASVRMRGEAEAFAIGARARAEAEQMAKKAEAFQLYQEAAQLDMLLEKLPQVAEEISGPLTSANKITLVSSGSGTMGAAKVTGEVLDILTRLPESVERLTGVSISQVNHKPLRTA
